Experimental data as given in publication PMC12204631.
No constants are given. Whether binding was seen depends on the method and setting. In cells and extracts the contact can be indirect. These calls come from enrichment with a bait or labelling near it, and not all partners need be listed. Tags and fused reporters may be left off the sequences shown.

T1: 6HIS-HA-JHD2 (S. cerevisiae) (UniProt P47156)
T1 sequence: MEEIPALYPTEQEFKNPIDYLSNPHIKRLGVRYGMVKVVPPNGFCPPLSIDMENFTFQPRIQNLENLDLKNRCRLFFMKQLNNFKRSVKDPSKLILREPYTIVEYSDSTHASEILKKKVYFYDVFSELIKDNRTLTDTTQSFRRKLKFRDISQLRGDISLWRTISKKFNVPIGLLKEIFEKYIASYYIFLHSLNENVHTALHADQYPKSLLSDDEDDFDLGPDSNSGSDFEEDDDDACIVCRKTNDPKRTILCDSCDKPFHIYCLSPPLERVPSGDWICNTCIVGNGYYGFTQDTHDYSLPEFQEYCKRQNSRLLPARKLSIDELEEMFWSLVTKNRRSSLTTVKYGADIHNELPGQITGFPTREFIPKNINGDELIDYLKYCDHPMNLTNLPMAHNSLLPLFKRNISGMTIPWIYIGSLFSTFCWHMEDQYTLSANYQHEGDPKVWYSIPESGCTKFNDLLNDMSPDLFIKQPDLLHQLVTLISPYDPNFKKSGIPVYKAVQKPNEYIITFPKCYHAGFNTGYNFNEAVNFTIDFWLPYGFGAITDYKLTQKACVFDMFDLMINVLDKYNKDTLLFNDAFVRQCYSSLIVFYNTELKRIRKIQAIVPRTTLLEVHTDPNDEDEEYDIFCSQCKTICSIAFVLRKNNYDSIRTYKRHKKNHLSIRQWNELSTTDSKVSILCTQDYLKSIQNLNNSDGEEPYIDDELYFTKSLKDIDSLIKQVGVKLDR


Target: T1, 6HIS-HA-JHD2 (S. cerevisiae)
Test: affinity purification with mass spectrometry; whole cell extracts of a wild-type strain with 6HIS-HA-JHD2 induced from the GAL1 promoter for 6 hours; Ni-NTA agarose and anti-HA agarose beads at 4°C for 24 hours; proteins found with the empty vector strain excluded

binding	Binder
binds	TRM2 (protein, UniProt P33753 1-639) MYEQFEFSFFFFENSDNKVKYKAHLISSIKRWSIITCMRCFWTVQKSIFKARFFACRNFVKKHNYKLISTMTGSTEMVPPTMKHTVDNKRLSSPLTDSGNRRTKKPKLRKYKAKKVETTSPMGVLEFEVNDLLKSQNLSREQVLNDVTSILNDKSSTDGPIVLQYHREVKNVKVLEITSNGNGLALIDNPVETEKKQVVIIPFGLPGDVVNIKVFKTHPYYVESDLLDVVEKSPMRRDDLIRDKYFGKSSGSQLEFLTYDDQLELKRKTIMNAYKFFAPRLVAEKLLPPFDTTVASPLQFGYRTKITPHFDMPKRKQKELSVRPPLGFGQKGRPQWRKDTLDIGGHGSILDIDECVLATEVLNKGLTNERRKFEQEFKNYKKGATILLRENTTILDPSKPTLEQLTEEASRDENGDISYVEVEDKKNNVRLAKTCVTNPRQIVTEYVDGYTFNFSAGEFFQNNNSILPIVTKYVRDNLQAPAKGDDNKTKFLVDAYCGSGLFSICSSKGVDKVIGVEISADSVSFAEKNAKANGVENCRFIVGKAEKLFESIDTPSENTSVILDPPRKGCDELFLKQLAAYNPAKIIYISCNVHSQARDVEYFLKETENGSAHQIESIRGFDFFPQTHHVESVCIMKRI
binds	BUB3 (protein, UniProt P26449 1-341) MQIVQIEQAPKDYISDIKIIPSKSLLLITSWDGSLTVYKFDIQAKNVDLLQSLRYKHPLLCCNFIDNTDLQIYVGTVQGEILKVDLIGSPSFQALTNNEANLGICRICKYGDDKLIAASWDGLIEVIDPRNYGDGVIAVKNLNSNNTKVKNKIFTMDTNSSRLIVGMNNSQVQWFRLPLCEDDNGTIEESGLKYQIRDVALLPKEQEGYACSSIDGRVAVEFFDDQGDDYNSSKRFAFRCHRLNLKDTNLAYPVNSIEFSPRHKFLYTAGSDGIISCWNLQTRKKIKNFAKFNEDSVVKIACSDNILCLATSDDTFKTNAAIDQTIELNASSIYIIFDYEN
binds	TRM5 (protein, UniProt P38793 45-499) KIPMCAVKFPEPKNISVFSKNFKNCILRVPRIPHVVKLNSSKPKDELTSVQNKKLKTADGNNTPVTKGVLLHESIHSVEDAYGKLPEDALAFLKENSAEIVPHEYVLDYDFWKAEEILRAVLPEQFLEEVPTGFTITGHIAHLNLRTEFKPFDSLIGQVILDKNNKIECVVDKVSSIATQFRTFPMKVIAGKSDSLVVEQKESNCTFKFDFSKVYWNSRLHTEHERLVKQYFQPGQVVCDVFAGVGPFAVPAGKKDVIVLANDLNPESYKYLKENIALNKVAKTVKSFNMDGADFIRQSPQLLQQWIQDEEGGKITIPLPLKKRHRSQQHNDQQPPQPRTKELIIPSHISHYVMNLPDSAISFLGNFRGIFAAHTKGATDTIQMPWVHVHCFEKYPPGDQVTEDELHARVHARIIAALKVTADDLPLNAVSLHLVRKVAPTKPMYCASFQLPANV
binds	TRM3 (protein, UniProt Q07527 1-1436) MVGGALICKYLPREEQLKLISDLIQNDSLEEVLELIETSPLDITTDSNIETPIFEKITEQVIAYASIDGEAREMFRSSRAEMNKALRTSAQLLCCLPSVWHKFQVWMSYRLNDIISENYKHLFNDNFGKKIVQPFFDSFAEEQNANIKHENLHLDILSLLHYLEVVYLFDECKNGISSKCLDFIIVPLLGCNSEEIADSCSKLMRWHIKYLSKCCNTDSNFDKLIWTFIKQLYAEGSQQAWKQKNSLSFLLRFLLAAELSPELITYIKTDAYWRHIQTELDNDVHEHRKLALSILKLTIQKLSSHGITLQTTFYKCNDLANIEMLGSWKKFTTLYEMIALDTSLNQIQAAKQDIIKIFDNEHLHHSWGLILLSTGLKSSMESVRKYMMTLMFSITNMSAFSSNLPLLTKTLLPAAMSAHYFDVKGVSCPHGEKLSLFVNNLLSQTTEGISDILFEILKLLVEKGTSFDPSRIYLSYGILVFFQNNKQKTINSDHLSLIRKLYDFAAEEEVLETTIQTIYLKFLLYIDPSVSASELLFTLVSHIKLKGGTYKYVEPLFEDYRDLAVSHFDDLQAKENLTTNIGKDTIFDLLASIIFDFKDIDITPDFLIEVAKSKQDIPVYTSKAVTFLTQLLSGEPSNGYTYENATALLSYPNFTISTWKSINVNNLFKSVMEKFSLDKFKFFAEIYQKTYECRFDTIELNFNDLLSLYEMVKKSANQCSRESFKVKDSAYSSYFELLNTFLKTYALNRDSSEGNDDELHILLRLVDENINKDNGNYLGNLAVCKLLYFIIDSYIHCSTSVSDDDIFIVKFIFEKFSFIWECINSERLVLKERDLHLMLIKGLFHPVILYFGSNQYIDTLTSKLEEHAQTIISLSYSRRSLLPLLGSQLRVFMKFYGKLLREDVNYWWLINIIVGVFKQPQMDVNLYKLKPVISSLFDHKLNNYYIKGDELYEKVYGPDEILARVSIIDSILYANDQLKIRLIEKVTEKTNALYAIKRTDGAEALQRLLQWQLLLLSLLTTNEKKLSETSMIRILKSIEDESSPLVRVYKEWFISSKVVDYYKTGNPKFAEDYLFSLLEDHSKPVFVVSAEKICFMVLKDLRNDEKKYGFTQLLDRFICTLVPNAASNKPLVRHFSNSLIISLWPTFKAYLSDHTLRNIIENLYSNAKKTQIFGQYRAGDANIWDLKGDRKLTNMFGGVLKKVTDHDCPYISESVFEKYLQEKDIVPIGTDERSLWLDKRDTNTESVNNANISCDTSPLQTKSGAWETVLDLDNKKSNDVVTRSELIVVSSLVDKPPNLGGICRLCDVLGVGLLTVQDIKVKNHPQFKNVAVTADRWMPMEEVALDEIASFMKEKKKEGYTLIGLEQTDKSVKLDNNFQFPKKSLILLGTEAFGIPGTLLSELDLCLEIQQFGVIRSMNIQTATAVIVHSYTVQHM
binds	SEE1 (protein, UniProt P40516 1-229) MQGTADLSTSKLGTKKYWDELYALELENFRRNPQDTGDCWFSDSDAEQKMIDFLVDNIGAYRISENASVVDLGTGNGHMLFELHQTEFQGKLVGIDYSEESVKLASNIAEATGVDNFISFQQADIFSGDWKPGKYDIVLDKGTLDAISLSGMKINGKLDVVDVYAGVVERILKKDGIFLITSCNFTQDELVKIIETDNLKMWKTIKYPVFQFGGVQGATICSVAFVKQN
binds	SET2 (protein, UniProt P46995 1-733) MSKNQSVSASEDEKEILNNNAEGHKPQRLFDQEPDLTEEALTKFENLDDCIYANKRIGTFKNNDFMECDCYEEFSDGVNHACDEDSDCINRLTLIECVNDLCSSCGNDCQNQRFQKKQYAPIAIFKTKHKGYGVRAEQDIEANQFIYEYKGEVIEEMEFRDRLIDYDQRHFKHFYFMMLQNGEFIDATIKGSLARFCNHSCSPNAYVNKWVVKDKLRMGIFAQRKILKGEEITFDYNVDRYGAQAQKCYCEEPNCIGFLGGKTQTDAASLLPQNIADALGVTVSMEKKWLKLKKLSGEPIIKNENENINIEFLQSLEVQPIDSPVDVTKIMSVLLQQDNKIIASKLLKRLFTIDDDSLRHQAIKLHGYTCFSKMLKLFITEQPQVDGKGNETEEDDIKFIKGILDFLLELPKTTRNGIESSQIDNVVKTLPAKFPFLKPNCDELLEKWSKFETYKRITKKDINVAASKMIDLRRVRLPPGWEIIHENGRPLYYNAEQKTKLHYPPSGSSKVFSSRSNTQVNSPSSSGIPKTPGALDSKKHKLSDEEYERKKQKRLEYERIALERAKQEELESLKQKLKLENERKSVLEDIIAEANKQKELQKEEAKKLVEAKEAKRLKRKTVSQSQRLEHNWNKFFASFVPNLIKKNPQSKQFDHENIKQCAKDIVKILTTKELKKDSSRAPPDDLTKGKRHKVKEFINSYMDKIILKKKQKKALALSSASTRMSSPPPSTSS
binds	SET5 (protein, UniProt P38890 1-526) MTLTIKIGTLNDSDQSAVHNGTENGSDFRKITPTEEEICDDVVLLWKEEPGTEDATIQHLYDRITERNQSWKLSASRFRKILNEHHLYDTDLETVSLYKDKIHFPKALDSDAKVEVKFIDDEHGRGLFAKRDFSKGQIILKENKPIVYIPPLDKLFLISNGKACARCGKALYDLTQHKIMVHYLDCEVCKAIWCSEKCKKAHASLHELLYHSWRSNRIDILHAGNWKRFVNYCEKYCFTAAFSVGLIYGSMLLDTTGEVKEQWQKLASISQRERIKLRDASGIGSTFSLLNGTTVHTEEESDNGTKKGVEKNIDDETVWEKCYELFCGAFPKASEEIDFEKFLTMIGTFNINQYNGQVYHWISFINHDCEPNAYIEQVEEHEELRLHARKPIKKGEQIRITYVNPLHGVRLRRRELRVNWGFLCQCDRCQNELSTFERVPNLEKKNADANLGVEKIDSNDSSEDGSKKSTGNRKSSMREAQPDLKEILKNGKEFELDIPETVDTQGNVRKTSVRFDSNVSVAVDER
